In patent US11331312B2, “Treatment of H-Ras-driven tumors” (MEMORIAL SLOAN-KETTERING CANCER CENTER, priority 2014, dated 2022):
Entries after “also recorded” stand apart in the source; their conditions may differ. At least one compound was matched to its structure with a doubt left.

What was measured:
[1] = test system: Hras-G12V+/+/p53-null thyroid cancers; test: Extended (24-week) tipifarnib treatment of mice: tumor growth, survival, resistance; format: in vivo, mouse
[2] = test system: MAPK pathway signaling effectors; test: Western blots of MAPK pathway signaling effectors in HP-ATC1 mouse cell line; format: cell-based; details: HP-ATC1 cells, 1.5% serum, increasing concentrations of drug, Western blot
Protocol: (§1) FIGS. 2A and B show the results of exposure of mouse cell lines from tumor bearing Tpo-Cre/FR-HrasG12V/p53flox/flox mice to farnesyltransferase inhibitors. Mouse cell lines were generated from tumor bearing Tpo-Cre/FR-HrasG12V/p53flox/flox mice by collagenase/dispase digestion and maintained in Coon's F-12 media with serum. After 15 passages, cells were plated in 1.5% serum and exposed to increasing concentrations of indicated drug. (A) Western blots were performed for indicated proteins (antibodies from Cell Signaling with exception of Hras which was from Santa Cruz).
(§2) Development and characterization of mouse cell lines from TPO-Cre, Hras-G12V+/+, p53f/f mice: In order to study this model in vitro, we developed a mouse cell line (HP-ATC1) from an animal with ATC. The cell line was confirmed to harbor the HrasG12V mutation, and maintained primary tumor characteristics, including its spindle shape and the relative expression of E-cadherin and vimentin through serial passaging (x6-10).
(§3) The FTIs Tipifarnib and Lonafarnib block MAPK signaling and growth of mouse Tpo-Cre, HRas-G12V+/+, p53f/f cell line: There are currently no therapies that directly target oncogenic forms of oncogenic Ras.
(§4) Mouse cell lines were generated from tumor bearing Tpo-Cre/FR-HrasG12V/p53flox/flox mice by collagenase/dispase digestion and maintained in Coon's F-12 media with serum. […]

[3] = test system: Hras-G12V+/+/p53-null thyroid cancers; format: in vivo; details: treatment extended for 28 days
[4] = test system: Hras-G12V+/+/p53-null thyroid cancers; test: 2-week FTI treatment of mice with thyroid cancers, tumor volume by 3D ultrasound; format: in vivo, mouse; details: 80 mg/kg twice daily by gavage, 2 weeks (14 days)
Protocol: FIG. 3 is a schematic showing the design of the in vivo study of tipifarnib in Tpo-Cre/FR-Hras^G12V/p53^flox/flox mice. Mice were treated for 14 days with tipifarnib 80 mg/kg BID by gavage. Tipifarnib was prepared in 20% beta-cyclodextran. 3D ultrasound was performed before and after treatment to assess percent change in tumor volume.
Tumors in each treatment group were sized matched at the beginning of therapy.
FIG. 5 is a waterfall plot of the same mice but with an additional cohort of mice treated with lonafarnib added. Of note the lonafarnib treated mice were not size matched to the vehicle group.
The activity of these compounds in vivo was explored. Mice were treated for 2 weeks with tipifarnib or lonafarnib at 80 mg/kg twice daily (drug mixed in 20% beta-cyclodextran and given by gavage). […] Treatment with FTIs was well tolerated in the mice with no significant differences in animal weight between vehicle and drug at 14 days (FIG. 6). Next mice were treated with Tipifarnib or vehicle for an extended time course. Of note, for this experiment tumors in each group were size-matched at the time of treatment initiation (FIG. 8).

[5] = test system: HP-ATC1 cells; test: 6 day proliferation assay in HP-ATC1 mouse cell line; format: cell-based; details: 1.5% serum, 6 day assay, increasing concentrations of drug
Protocol: as §1, §2, §3, §4

## Cn1cncc1[C@@](N)(c1ccc(Cl)cc1)c1ccc2c(c1)c(-c1cccc(Cl)c1)cc(=O)n2C [tipifarnib]
[1]; 80 mg/kg BID, 24-week treatment period, size-matched tumors
  tumor growth compared to vehicle: significantly less tumor growth
[1]; extended tipifarnib treatment, all treated animals
  development of resistance (increased tumor volume over time): resistance ultimately developed
[2]
  inhibition of MAPK effector phosphorylation: dose-dependent inhibition
[3]
  tumor size / growth: increased tumor growth
[4]
  change in thyroid tumor volume (ultrasound) compared to vehicle-treated mice: Substantial reduction in growth and tumor size; also recorded: Significant reduction in thyroid tumor volume
[5]
  inhibition of proliferation: dose-dependent inhibition of proliferation
